# Assay results reported in PubChem BioAssay AID493014 (National Center for Advancing Translational Sciences (NCATS), 2011).
# The whole screen tested about 340,000 compounds, of which about 170 (0.05%) were called active. The shares of active, inactive and inconclusive entries below differ from those in the screen. Calls come from the whole dose curve; as a rule, active = well fitted inhibition curve with a large enough effect in the signal ratio, with a control signal flat (not every such curve was filed as active); inconclusive = small, poorly fitted or top-dose-only effect, or effect the other way, or a change in a side signal; inactive = flat fitted curve, though single readings scatter; the % refers to the signal ratio. A potency beside an inconclusive call is a rough fit, not a confirmed value.
# Test: qHTS Assay to Find Inhibitors of Chronic Active B-Cell Receptor Signaling;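 for activity change, negative = inhibition: plate controls were basal doxycycline-induced cells for no effect and cells given 10 µM MG132 for full effect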
# Conditions: ABC-DLBCL IkBa-CBG/CBR reporter, luminescence ratio (green luciferase fused to IkBa over red control in TMD8 lymphoma cells), 4 h; activity change, negative = inhibition: at 46.1 µM (top of the series)
# In short: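 Concentration-response series (up to 46 uM) were applied to TMD8 dual-reporter cells for 4 h at 37C with doxycycline. Green/red ratio, after filter-overlap correction, defined %Activity; red signal alone was normalised to basal cells and zero luminescence.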
# Potency is the fitted concentration of half-maximal effect.
Structure (SMILES),"activity change, negative = inhibition",Potency
Cn1c(SCc2ccccc2Cl)nnc1-c1cnccn1,inconclusive: 2.82%,
CCOc1ccc2ncc(C(=O)c3ccc(OC)cc3)c(N3CCN(CC)CC3)c2c1,inactive: -0.442%,
CNC(=O)C1CCC(=O)N1Cc1ccccc1Cl (centres undefined),inactive: -5.34%,
CCCn1c(N)c(C(=O)COC(=O)c2c(C)noc2C)c(=O)n(C)c1=O,inactive: -1.07%,
COc1ccc(N(C)S(=O)(=O)c2cccc(C(=O)Nc3ccc(-n4cnnn4)cc3)c2)cc1,inconclusive: -9.18%,
O=C1CC(Sc2nnc(-c3ccccc3O)o2)C(=O)N1c1ccccc1 (centres undefined),inconclusive: -2.48%,
COc1cccc(/C=N/NC(=O)C(C)Cn2cnc3ccccc32)c1 (centres undefined),,"inconclusive: 31.6 µM [falling, partial curve, poor fit]"
O=C(c1ccccc1Br)N1N=C(c2ccccc2)CC1c1ccccc1F (centres undefined),inconclusive: 6.75%,
CC(/C=C1\SC(=S)N(NC(=O)c2ccccc2C)C1=O)=C\c1ccccc1,inconclusive: -7.68%,
O=C(COC(=O)CNC(=O)c1ccccc1Cl)Nc1cc(C(F)(F)F)ccc1Cl,inconclusive: 14.5%,
CCCc1cc(NCCCN2CCOCC2)n2c(nc3ccccc32)c1C#N,,"inconclusive: 6.51 µM [rising, full curve, poor fit]"
O=C(Nc1nnc(CCN2CCCCC2)s1)c1ccccc1,inconclusive: 19.3%,
COc1ccc(C2c3c(-c4ccccc4)n[nH]c3C(=O)N2c2ccc(C(=O)O)cc2)cc1 (centres undefined),,"inconclusive: 35.5 µM [rising, single point]"
CC(NC(=S)NCCc1ccccc1)C(c1cccs1)N1CCN(Cc2ccccc2)CC1 (centres undefined),inconclusive: 2.56%,
Cc1ccc(CSc2nnc(SCC(=O)N/N=C/C=C/c3ccco3)s2)cc1,,"inconclusive: 23.1 µM [falling, partial curve]"
CCOC(=O)/C=C/c1nc(C(=O)OCC)c(C)c(=O)[nH]1,inconclusive: 6.24%,
N#CC(C#N)=C(Nc1ccc(F)cc1)SCc1cccc(Br)c1,,"inconclusive: 14.6 µM [falling, single point]"
O=C(CCC(=O)Nc1ccc(Br)cc1)N/N=C/c1ccc(F)cc1,inconclusive: -4.92%,
FC(F)(F)c1cnc(Sc2nnc(-c3cccs3)n2CC2CCCO2)c(Cl)c1 (centres undefined),inactive: -16.2%,
CC(C)C[C@H](NC(=O)[C@@H]1Cc2ccccc2CN1C(=O)OC(C)(C)C)C(=O)NCC1CCC(C(=O)O)CC1 (some centres undefined),inconclusive: -18.8%,
COc1ccc(C2C(C(=O)N3CCCC3)CC(=O)N2c2ccc(OC)cc2)cc1 (centres undefined),inconclusive: 0.558%,
CO/N=C/c1c(-c2ccccc2)nn(C)c1Cl,inconclusive: -1.21%,
O=C(CN1C(=O)c2ccccc2S1(=O)=O)c1cccc(Br)c1,inactive: 3.11%,
CC(C)NC(=O)NC(=O)COC(=O)CCCSc1nc2ccccc2s1,,"inconclusive: 0.0651 µM [rising, full curve]"
COc1ccc(Cl)cc1NC(=S)N1CCN(c2ncccn2)CC1,inconclusive: 12.2%,
COc1ccc(-n2cc(-c3ccccc3)[nH]c2=S)cc1,inconclusive: 18.3%,
O=C(CSc1ncccc1C(=O)Oc1ccccc1Cl)Nc1ccc(C(F)(F)F)cc1Cl,inconclusive: 15.9%,

Structure (SMILES),"activity change, negative = inhibition",Potency
CC(=O)c1c(C)[nH]c(C)c1C(C)=O,inconclusive: -1.59%,
C=CCn1c(SCC(=O)NCC2CCCO2)nc2sc(C)c(C)c2c1=O (centres undefined),inconclusive: 3.56%,
N#C/C(=C\c1ccccc1C(=O)O)c1nc2ccccc2[nH]1,inconclusive: -13.6%,
CCN1CCN(S(=O)(=O)c2ccc(Br)s2)CC1,inconclusive: -5.16%,
Cc1cccc([C@@H]2[C@@H]3C(=O)N(Cc4ccccc4)C(=O)[C@@H]3[C@]3(Cc4ccc(Cl)cc4)C(=O)N(c4ccc(Br)cc4)C(=O)N23)c1,inconclusive: 25.5%,
Cc1cccc(OCC(=O)NCc2cc(C)nc3ccccc23)c1,inconclusive: -0.107%,
COc1ccc(C(=O)OCc2c(-c3ccccc3)ncc3ccccc23)cc1,inactive: -16.7%,
O=C(CN1CCSCC1)N/N=C/c1ccc(F)cc1F,inconclusive: 20.9%,
COc1ccc(C2NCCc3c2[nH]c2ccccc32)cc1CSc1nc2ccccc2s1 (centres undefined),inconclusive: -7.17%,
Cc1cc(C)c(S(=O)(=O)Nc2nnc(C)s2)c(C)c1,inactive: 1.28%,
Cc1cc(C(=O)NNC(=S)NCc2ccccc2)cs1,inactive: -1.13%,
Cc1ccc(S(=O)(=O)N(CC(=O)N2CCc3ccccc3C2)c2cccc(Cl)c2)cc1,inconclusive: 3.86%,
COc1ccc(-c2noc(CCc3ccccc3)n2)cc1,inconclusive: 3.51%,
COCCSc1nnc(NC(=O)c2ccc([N+](=O)[O-])cc2)s1,inconclusive: 4.58%,
Cc1cc(SC#N)cc(C)c1NC(=O)CCl,inconclusive: 21%,
Cc1cc(NC(=O)CCC(=O)N(Cc2ccccc2)C(C(=O)NC2CCCC2)c2ccc(C)o2)no1 (centres undefined),inconclusive: -17.5%,
C=C(C)[C@@H]1CC=C(CN2CCC(N3CCC(C(=O)N4CCCC4)CC3)CC2)CC1,inconclusive: -13.5%,
CCn1c(=O)n(CC)c2cc(S(N)(=O)=O)ccc21,inconclusive: -5.53%,
CCOc1ccc(/C=C(\C#N)C(=O)c2c(C)[nH]c3ccccc23)cc1OC,inactive: -5.08%,
Cc1cc(=S)nc(-c2ccccn2)[nH]1,,"inconclusive: 3.16 µM [falling, single point]"
CCC(C)NCCOCCOc1ccc(Cl)c(C)c1C (centres undefined),inconclusive: -12.1%,
O/N=C/c1ccc(OCC(O)COc2ccc(/C=N/O)cc2)cc1,inconclusive: -2.44%,
CCOC(=O)c1c(CN2CCN(CCO)CC2)n(-c2ccccc2)c2cc(Br)c(O)cc12,,"inconclusive: 11.2 µM [falling, single point]"
Cc1ccc2c(Cl)cc(Cl)c(OCC(=O)N3CCOCC3)c2n1,inactive: 0.119%,
CCC(C)c1ccccc1N1CC(C(=O)N2CCN(C(=O)c3ccco3)CC2)CC1=O (centres undefined),inactive: 4.7%,
COc1ccc(-c2noc(CCC(=O)Nc3cccc(C)c3)n2)cc1,inconclusive: 19.2%,
O=C(N/N=C/c1ccc([N+](=O)[O-])cc1)c1cnccn1,inconclusive: -11%,

# 4 of the compounds above, with bars between the fields:
Structure (SMILES) | activity change, negative = inhibition | Potency
CC(=O)c1c(C)[nH]c(C)c1C(C)=O | inconclusive: -1.59% | 
C=CCn1c(SCC(=O)NCC2CCCO2)nc2sc(C)c(C)c2c1=O (centres undefined) | inconclusive: 3.56% | 
N#C/C(=C\c1ccccc1C(=O)O)c1nc2ccccc2[nH]1 | inconclusive: -13.6% | 
CCN1CCN(S(=O)(=O)c2ccc(Br)s2)CC1 | inconclusive: -5.16% | 
